Measurements from article PMC12040169 (PLOS Biology, 2025).
Read-outs that look alike come from different tables or passages of the source. The list shows a part of the results.

Tested on: T1, CTL2-GFP (C. trachomatis L2/434/Bu, GFP-expressing)
T1 construct: L2/434/Bu, GFP-expressing
Design: species or system HeLa; Intracellular C. trachomatis growth in HeLa cells, bulk GFP fluorescence relative to DMSO
Settings: bulk GFP, single well, 28.5 h, 10 µM, inhibitor

SMILES | % of control remaining [%] | % of control remaining (Bulk GFP fluorescence) [%]
O=C(O)CCCNC(=O)c1ccncc1 [CBK261146] | 113.552 | 
O=C(NC(c1ccccc1)c1ccco1)C1CCN(C(=O)CCC2CCCC2)CC1 (centres unmarked) [CBK059887] | 124.428 | 
CCCCc1nccc(-c2ccc(OCC)c(C(=O)O)c2)n1 [CBK307429] | 155.872 | 
COC(C)c1nc(C)c(C(=O)NC2CCCN(c3ccn(C)n3)C2=O)s1 (centres unmarked) [CBK305454] | 131.772 | 
Cn1c(CSc2nc3sc4c(c3c(=O)[nH]2)CCCC4)nnc1SC/C=C/c1ccccc1 [CBK264428] | 115.871 | 
NC(=O)c1c(NC(=O)c2ccc(COc3cc(Cl)ccc3Cl)o2)sc2c1CCCC2 [CBK265775] | 125.488 | 
Cc1cc(C(C)(C)C)cc(S(=O)(=O)Nc2ccc(C(=O)O)c(O)c2)c1C [CBK299820] | 105.1 | 
CS(=O)(=O)CCNC(=O)c1cnc(-c2ccc(F)cc2)c(-c2cccnc2)c1 [CBK038066] | 105.375 | 
COC(=O)c1ccc(SCc2nc(N3CCOCC3)c3c(c2C#N)CC(C)(C)OC3)o1 [CBK019077] | 126.33 | 
CC(C)(C)C1=CC2=NC3(CCC3)C3C[C@](O)(CO)[C@@H](O)[C@@H]3N2O1 (some centres unmarked) [CBK303262] | 162.667 | 
O=C(O)C1(Cc2ccc(-c3cccs3)cc2)CCNC1 (centres unmarked) [CBK281679] | 97.79 | 
CC(C(=O)N1C2CCC1CC(O)(c1ccco1)C2)c1ccccc1 (centres unmarked) [CBK284112] | 122.887 | 
COc1ccc(C(=O)N[C@H]2C[C@@H]3C(=O)N[C@H]4CCN(C(=O)C5CCC5)[C@@H]4C(=O)N3C2)cc1 [CBK289266] | 130.63 | 
NS(=O)(=O)c1ccc(CN2CCCC2=O)cc1 [CBK288420] | 86.6511 | 
COCc1cn(C2CCN(c3cc(-n4cc(C)cn4)ncn3)CC2)nn1 [CBK307388] | 124.583 | 
CC(C)(C)NC(=O)N1CCC(Nc2nccc(C(F)(F)F)n2)CC1 [CBK028788] | 114.27 | 
O=C(NC1CCc2ccccc21)N1CCN(c2ccccc2)CC1 (centres unmarked) [CBK155208] | 152.824 | 
CC[C@H]1C[N@@]2CC[C@H]1C[C@@H]2CNS(=O)(=O)c1ccc(NC(C)=O)cc1 [CBK288745] | 136.653 | 
O=C(O)CCN1C(=O)C(=Cc2ccc(OCc3ccccc3)cc2)c2ccccc2C1=O [CBK297552] | 135.046 | 
COc1ccc(-c2ccnc(N[C@H]3CO[C@H]4[C@@H]3OC[C@@H]4NC(=O)C3CCCCC3)n2)cc1 [CBK289527] | 106.599 | 
CC(C)NC(=O)N(C)C1CCN(c2ncnc3ccccc23)CC1 [CBK306224] | 110.495 | 
CN1C(=O)C2(CC(=O)N(CCC3CCCCC3)C2=O)c2cc(Cl)ccc21 (centres unmarked) [CBK075231] | 107.52 | 
Cc1ccccc1Nc1nnc(-c2ccc(C(=O)NCCO)cc2)c2ccccc12 [CBK263743] | 93.3494 | 
CC(=O)NC[C@H]1CN(c2ccc(-c3nnc(CCC#N)s3)c(F)c2)C(=O)O1 [CBK017926] | 9.2428 | 
CCC(Sc1nc(=O)cc(-c2ccccc2)[nH]1)C(=O)O (centres unmarked) [CBK287135] | 127.812 | 
COc1ccc(CCCN2CCC(C(=O)NC(=O)Nc3cc(OC)c(OC)c(OC)c3)CC2)cc1 [CBK034855] | 154.018 | 

SMILES | % of control remaining [%] | % of control remaining (Bulk GFP fluorescence) [%]
CC(=O)N[C@H](C(=O)N1CC[C@@H]2NC(=O)[C@@H](Cc3ccccc3)NC(=O)C3(C/C=C/C[C@@H]2C1)CCOCC3)[C@@H](C)O [CBK292186] | 115.062 | 
C[C@@H](Nc1nc(-c2cccc3ncccc23)cnc1N)c1ccccc1 [CBK063755] | 100.296 | 
COC(=O)N1CCc2ccc(N3C[C@H](CNC(C)=O)OC3=O)cc2CC1 [CBK022485] | 14.7837 | 
O=C(Cc1ccccc1)N1CCCC1c1n[nH]cc1-c1ccncc1 (centres unmarked) [CBK283435] | 138.531 | 
COC(=O)CCCN1CCCC12CCc1[nH]c3ccccc3c1C2 (centres unmarked) [CBK107798T] | 109.836 | 
CCOc1ccsc1C(=O)N1CCN(CCc2ccccc2)CC1 [CBK200229] | 111.181 | 
Cc1ccc(S(=O)(=O)NCC(=O)Nc2ccc3cc(Br)cnc3n2)cc1 [CBK067429] | 88.1569 | 
CCC(NC(=O)Nc1ccccc1C(=O)O)(C(F)(F)F)C(F)(F)F [CBK268000] | 98.7144 | 
c1ccc(-c2ccc(OCCCCN3CCNCC3)cc2)cc1 [CBK266028G] | 179.645 | 
O=C(Nc1cccc(S(=O)(=O)N2CCOCC2)c1)c1cc2ccccc2oc1=O [CBK268170] | 107.833 | 
CC(NC(=O)c1cc(C(F)(F)F)[nH]n1)c1ccccn1 (centres unmarked) [CBK281712] | 147.162 | 
CCC(CN1CCCC1)NC(=O)Cc1cc(C)ccc1OC (centres unmarked) [CBK282759] | 135.008 | 
O=C(NCc1ccco1)[C@@H]1C=CCN1C(=O)Nc1ccccc1Cl [CBK284269] | 114.795 | 
Nc1nnc(SCC(=O)Nc2ccc3c(c2)OCCO3)s1 [CBK266331] | 124.453 | 
CCSC(C)CC1C/C(=N/O)c2c(C)noc2C1 (centres unmarked) [CBK021455] | 132.665 | 
C=CCn1c(Cc2csc(NC(=O)c3ccc(Cl)cc3)n2)n[nH]c1=S [CBK295318] | 135.934 | 
CCOC(=O)Cn1cnc2nc3c(cc2c1=O)CC(C)CC3 (centres unmarked) [CBK294402] | 167.828 | 
c1ccc(Nc2nc3nonc3n3cnnc23)cc1 [CBK287278] | 129.121 | 
CC1CCN(S(=O)(=O)c2ccc(NC(=O)C3=COCCO3)cc2)CC1 [CBK295332] | 172.802 | 
Nc1nc(=O)n([C@@H]2O[C@H](CO)[C@H](O)C2O)cc1I (some centres unmarked) [CBK201306] | 122.29 | 
COC(=O)[C@@H](C)NC(=O)[C@H]1CN(C(=O)c2cccnc2)CCN1C(=O)NC(C)C [CBK289630] | 120.208 | 
CCN(CC)C(=O)c1cccc(NS(=O)(=O)c2ccc(C)c(C(=O)O)c2)c1 [CBK296665] | 119.07 | 
CN1CCC[C@H]1C(=O)N1CCN(C(=O)c2ccco2)CC1 [CBK144449] | 119.583 | 
CC(=O)Nc1onc(C)c1-c1nc(-c2ccc(Cl)cc2Cl)cs1 [CBK067735] | 99.0303 | 
O=C(c1ccco1)N1CCN(c2cncc(-c3ccc4ccccc4c3)n2)CC1 [CBK065184] | 100 | 
Cc1cc(=O)oc2cc(OC(C)C(=O)NCC(=O)O)ccc12 (centres unmarked) [CBK286829] | 112.266 | 

Some of the entries so far, as comma-separated lines:
SMILES,% of control remaining [%],% of control remaining (Bulk GFP fluorescence) [%]
NS(=O)(=O)c1ccc(CN2CCCC2=O)cc1 [CBK288420],86.6511,
COCc1cn(C2CCN(c3cc(-n4cc(C)cn4)ncn3)CC2)nn1 [CBK307388],124.583,
CC(C)(C)NC(=O)N1CCC(Nc2nccc(C(F)(F)F)n2)CC1 [CBK028788],114.27,

Rewritten field by field: 2 of the compounds above
c1ccc(-c2ccc(OCCCCN3CCNCC3)cc2)cc1 [CBK266028G]
  % of control remaining [%]: 179.645
O=C(Nc1cccc(S(=O)(=O)N2CCOCC2)c1)c1cc2ccccc2oc1=O [CBK268170]
  % of control remaining [%]: 107.833

Additional records.

SMILES | % of control remaining [%] | % of control remaining (Bulk GFP fluorescence) [%]
COc1cc(CNc2cncc(-c3cccs3)n2)cc(OC)c1OC [CBK065526] | 110.89 | 
CN1CC(CO)CCC1Cc1c[nH]c2ccccc12 (centres unmarked) [CBK011468] | 139.261 | 
Cc1cc(NS(=O)(=O)N2CCOCC2)no1 [CBK269894] | 134.375 | 
Cn1c(N2CCOCC2)cc(=O)c2ccccc21 [CBK007775] | 116.931 | 
Cc1c(C(=O)O)sc2nc(SCC(=O)NCc3ccccc3)[nH]c(=O)c12 [CBK301214K] |  | 158.828
O=C(Cc1ccc(F)cc1Cl)N1CCC(O)(c2ccccn2)CC1 [CBK283755] | 115.92 | 
CC(=O)N1CCN(Cc2c(C3CCCC3)[nH]c3ncccc23)CC1 [CBK285339] | 140.313 | 
COc1ccc2nc(C(=O)O)sc2c1 [CBK026523N] | 114.517 | 
NC(=O)c1ccccc1NC(=O)COc1ccccc1 [CBK262599] | 100 | 
COc1ccc(C2(CN3CCC(NC(C)=O)CC3)CC2)cc1 [CBK285357] | 131.812 | 
COc1ccc2[nH]cc(CCNC(=O)Cc3ccsc3)c2c1 [CBK116205] | 110.729 | 
Cc1ccc(-c2ccc(N3CCCC(C(=O)O)C3)nn2)cc1C (centres unmarked) [CBK300513] | 131.839 | 
O=S(=O)(Nc1ccc2c(ccn2Cc2ccccc2)c1)c1cc(C(F)(F)F)cc(C(F)(F)F)c1 [CBK159540] | 132.876 | 
O=C1NC2(CCNCC2)Oc2ccc(-c3cccnc3)cc21 [CBK086611] | 132.068 | 
Cc1sc2nc(C(C)Nc3ccc4[nH]c(=O)[nH]c4c3)[nH]c(=O)c2c1C (centres unmarked) [CBK297915] | 110.356 | 
Cc1ccc(S(=O)(=O)NC[C@H]2O[C@@H](CC(=O)N3CCc4ccccc43)[C@H](O)[C@@H]2O)cc1 [CBK288917] | 117.204 | 
CC(C(=O)Nc1ccc2c(c1)OCO2)N(c1ccc(Cl)cc1)S(C)(=O)=O (centres unmarked) [CBK268595] | 135.242 | 
N#CC1=C(N)Oc2[nH]nc(-c3ccc4ccccc4c3)c2C1c1cn(CC(N)=O)nc1-c1ccccc1 (centres unmarked) [CBK266624] | 87.1656 | 
CC1(CNC(=O)c2cn3cc(Cl)ccc3n2)COC1 [CBK281748] | 124.87 | 
CC(C)CN1CCCN(S(=O)(=O)c2ccc(C(F)(F)F)cc2Cl)CC1 [CBK062943] | 105.833 | 
CC(C)(C)OC(=O)N1CCC[C@@H](C(=O)c2cccs2)C1 [CBK284310] | 130.083 | 
O=C(O)CCCNS(=O)(=O)/C=C/c1ccccc1 [CBK287170] | 131.295 | 
COc1ccccc1C(=O)Nc1ccc([C@@H](O)[C@H]2COCC(=O)N2)cc1 [CBK289688] | 159.703 | 
c1csc(COc2nccnc2-c2cc3ccccc3s2)c1 [CBK106786] | 100.855 | 
CN(C)c1ccccc1-c1cc(N2CCN(S(=O)(=O)c3ccc(Cl)cc3)CC2)ncn1 [CBK037039] | 129.653 | 
